Data as given in US20080038286A1.
No constants are given. Whether binding was seen depends on the method and setting. Some entries that bind do so weakly or less than the wild type.

The chains behind the UniProt entries cited, without tags or fusion partners. Residues count along the entry.
UniProt Q9NNX6, residues 59-404: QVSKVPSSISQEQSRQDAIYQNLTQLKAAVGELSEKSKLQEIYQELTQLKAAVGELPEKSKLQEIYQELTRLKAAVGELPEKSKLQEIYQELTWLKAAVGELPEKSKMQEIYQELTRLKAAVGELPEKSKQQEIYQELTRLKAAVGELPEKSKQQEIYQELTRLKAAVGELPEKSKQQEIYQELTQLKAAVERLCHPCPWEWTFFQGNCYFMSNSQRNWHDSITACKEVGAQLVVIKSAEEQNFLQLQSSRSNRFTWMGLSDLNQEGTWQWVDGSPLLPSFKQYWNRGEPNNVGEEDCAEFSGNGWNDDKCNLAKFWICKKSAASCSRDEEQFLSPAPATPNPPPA

Assays:
[1] = target: HIV-1 gp120 of YU2 strain produced in mammalian cells (HIV-1 strain YU2) (UniProt P35961); test: ELISA, plate coated with DC-SIGN ECD, YU2 gp120 added in rising amounts (0.64-2000 ng)
[2] = target: HIV-1 gp120 of YU2 strain produced in mammalian cells (HIV-1 strain YU2) (UniProt P35961); test: ELISA, DC-SIGN ECD coated on the plate, gp120 YU2 in solution

DC-SIGN extracellular domain (ECD) recombinant protein, expressed in E. coli and refolded (from UniProt Q9NNX6 59-404) (receptor)
binding [1]: binds
binding [2]: binds
